Source: PubChem BioAssay AID1487 (National Center for Advancing Translational Sciences (NCATS), 2009)
The list shows a part of the results. Shown are side measurements of this screen, not its main read-out; they come without a call. Most of these compounds were active or inconclusive in the main read-out, so they are no random draw. Potencies come from curve fits of mixed quality, noted in brackets.

Experiment: qHTS Assay for Modulators of Lamin A Splicing
Details: HeLa LMNA splicing GFP/RFP minigene ratio, 48 h
Summary of the method: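 S3 HeLa cells stably expressing lamin A-EGFP splicing minigene plus DsRed2, 600 cells/well, 48 h compound exposure at 37C. Laser-scanning cytometry; analysed as GFP (500-530 nm)/RFP (575-640 nm) total intensity ratio; 0.5% DMSO vehicle.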

[1] = measured here: GFP splicing reporter channel
[2] = measured here: RFP viability control channel

Compound | AC50 [1] | AC50 [2]
CCOc1cc(CNc2ncnc3nc[nH]c23)ccc1OC | 14.1 µM [rising, single point] | 17.8 µM [rising, partial curve]
CCC(=O)OCCNc1cc(Sc2nccn2C)c2nonc2c1[N+](=O)[O-] | – | 7.08 µM [falling, single point]
Cc1nn(Cc2ccc(F)cc2)c2sc(C(=O)Nc3nccs3)cc12 | 1 µM [rising, full curve, poor fit] | –
Cn1c(N2CCN(C(=O)Nc3ccc(F)cc3)CC2)nc2ccccc21 | – | 14.1 µM [rising, single point]
COc1ccc(CCNC(=O)CSc2nnc(-c3ccccc3)c3ccccc23)cc1OC | – | 1.41 µM [rising, full curve]
Cc1sc(NC(=O)CSc2nnc(-c3ccccc3)o2)c(C#N)c1C | 10 µM [rising, partial curve, poor fit] | 10 µM [rising, partial curve]
CCOc1ccc(S(=O)(=O)N(CC(=O)N2CCc3ccccc32)Cc2ccco2)cc1 | – | 15.8 µM [rising, single point]
COc1cc(OC)c(NS(=O)(=O)c2ccc3c(c2)NC(=O)CCS3)cc1Cl | 0.0316 µM [falling, full curve, poor fit] | 0.1 µM [falling, full curve]
O=[N+]([O-])c1ccc(OCC(O)CN2CCN(c3ccccc3F)CC2)cc1 (stereo not given) | 35.5 µM [falling, single point] | 35.5 µM [falling, single point]
Cc1cc(C)cc(Nc2sc(C(=O)c3ccccc3)c(N)c2S(=O)(=O)c2ccccc2)c1 | 31.6 µM [rising, single point] | 11.2 µM [rising, single point]
CCn1nc(C)c(/C=N/NC(=O)Cc2ccc(Cl)cc2)c1C | 7.08 µM [rising, full curve, poor fit] | 15.8 µM [rising, partial curve]
CCOC(=O)C(C(=O)OCC)C(C(=O)OCC)N1CCOCC1 (stereo not given) | – | 0.0178 µM [falling, full curve, poor fit]
Cn1c(=O)c2c(ncn2CC(COCc2ccc(Cl)cc2)OCc2ccc(Cl)cc2)n(C)c1=O (stereo not given) | – | 35.5 µM [rising, single point]
CCCOc1cccc(-c2cc(-c3n[nH]c(=S)n3CC)c3ccccc3n2)c1 | 25.1 µM [falling, single point] | 35.5 µM [falling, single point]
N/C(Cc1ccc(Cl)c(Cl)c1)=N\OC(=O)c1cccs1 | 22.4 µM [falling, single point] | 22.4 µM [falling, single point]
CCc1ccccc1NCC(=O)Nc1ccc(Cl)c(C(F)(F)F)c1 | – | 35.5 µM [rising, single point]
CN(C)c1ccc(/C=N/NC(=O)c2sccc2-n2cccc2)cc1 | – | 31.6 µM [falling, partial curve]

Compound | AC50 [1] | AC50 [2]
Cc1cc(C)cc(OCC(=O)NCC2(N(C)C)CCCCC2)c1 | 0.447 µM [falling, full curve, poor fit] | 0.0316 µM [falling, full curve, poor fit]
COCC(C)n1c(SCC(=O)NNC(=O)c2ccccc2)nc2ccccc2c1=O (stereo not given) | – | 0.0891 µM [falling, full curve, poor fit]
O=C1CC(c2ccccc2Cl)=NN(c2ncnc3ccccc23)C1=O | – | 22.4 µM [falling, single point]
O=C(Cc1ccc(Cl)cc1)NCCS(=O)c1ccc(Cl)cc1 (stereo not given) | 5.62 µM [falling, single point] | 0.02 µM [falling, full curve, poor fit]
Cc1ccccc1C(=O)OC1OC(=O)C(Cl)=C1Nc1ccccc1 (stereo not given) | 0.891 µM [falling, full curve, poor fit] | 17.8 µM [rising, single point]
O=C(Nc1ccccc1C(=O)NCc1ccco1)Nc1cccc2ccccc12 | 35.5 µM [rising, single point] | –
NC(=O)c1ccc(NCc2ccco2)c([N+](=O)[O-])c1 | 0.0355 µM [rising, single point] | 0.794 µM [rising, single point]
CCC1CN(C(=O)Nc2cc(C)cc(C)c2)c2ccccc2O1 (stereo not given) | 7.94 µM [falling, partial curve, poor fit] | –
COc1cc(NC(=O)c2ccccc2NS(=O)(=O)c2ccc(Cl)s2)cc(OC)c1 | 1.41 µM [rising, partial curve, poor fit] | 3.16 µM [rising, partial curve]
COc1cccc(-n2c(SCc3ccccc3C)nc3c([nH]c4ccccc43)c2=O)c1 | 25.1 µM [falling, partial curve, poor fit] | 35.5 µM [falling, single point]
CCCC(=O)NC(c1ccc(OC)cc1)c1ccc2cccnc2c1O (stereo not given) | 3.98 µM [falling, full curve] | –
O=C(C1CC1)N1CCN(c2nc3ccc(F)cc3s2)CC1 | 0.00316 µM [falling, full curve, poor fit] | 0.00316 µM [falling, full curve, poor fit]
CCCCn1c(N)c(NCCC)c(=O)[nH]c1=O | – | 1 µM [rising, partial curve]
COc1ccc(C(CC(=O)c2ccc(C)cc2)Nc2ccc([N+](=O)[O-])cc2)cc1 (stereo not given) | – | 20 µM [rising, single point]
CCc1cc(C(=O)c2ccccc2OC)c(N)s1 | 31.6 µM [rising, single point] | 31.6 µM [rising, single point]
CCCCOc1ccc(CNC(=O)c2cnc3sc(N4CCOCC4)nn3c2=O)cc1 | 0.316 µM [rising, full curve, poor fit] | –
Cc1cc(N2CCC(C)CC2)n2ncc(-c3ccccc3)c2n1 | – | 12.6 µM [rising, partial curve]

Part of the list above, as labelled records.
Cc1cc(C)cc(OCC(=O)NCC2(N(C)C)CCCCC2)c1
  AC50 [1]: 0.447 µM [falling, full curve, poor fit]
  AC50 [2]: 0.0316 µM [falling, full curve, poor fit]
NC(=O)c1ccc(NCc2ccco2)c([N+](=O)[O-])c1
  AC50 [1]: 0.0355 µM [rising, single point]
  AC50 [2]: 0.794 µM [rising, single point]
